Measured values published in paper doi:10.1101/2021.10.20.465144.
Results are given in words; binding and its absence hold for the method and conditions named. Binding seen in cells or lysates may run through a third protein. Some results given as binding are weak or reduced against the parent protein; the word gives no strength. For some assays here: Tags and fused reporters may be left off the sequences shown.

Chains of the proteins cited; added tags and fusions are not shown.
UniProt O95166: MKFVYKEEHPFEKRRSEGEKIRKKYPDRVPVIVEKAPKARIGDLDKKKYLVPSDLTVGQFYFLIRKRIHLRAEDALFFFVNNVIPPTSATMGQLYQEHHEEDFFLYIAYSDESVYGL
UniProt Q8TDY2: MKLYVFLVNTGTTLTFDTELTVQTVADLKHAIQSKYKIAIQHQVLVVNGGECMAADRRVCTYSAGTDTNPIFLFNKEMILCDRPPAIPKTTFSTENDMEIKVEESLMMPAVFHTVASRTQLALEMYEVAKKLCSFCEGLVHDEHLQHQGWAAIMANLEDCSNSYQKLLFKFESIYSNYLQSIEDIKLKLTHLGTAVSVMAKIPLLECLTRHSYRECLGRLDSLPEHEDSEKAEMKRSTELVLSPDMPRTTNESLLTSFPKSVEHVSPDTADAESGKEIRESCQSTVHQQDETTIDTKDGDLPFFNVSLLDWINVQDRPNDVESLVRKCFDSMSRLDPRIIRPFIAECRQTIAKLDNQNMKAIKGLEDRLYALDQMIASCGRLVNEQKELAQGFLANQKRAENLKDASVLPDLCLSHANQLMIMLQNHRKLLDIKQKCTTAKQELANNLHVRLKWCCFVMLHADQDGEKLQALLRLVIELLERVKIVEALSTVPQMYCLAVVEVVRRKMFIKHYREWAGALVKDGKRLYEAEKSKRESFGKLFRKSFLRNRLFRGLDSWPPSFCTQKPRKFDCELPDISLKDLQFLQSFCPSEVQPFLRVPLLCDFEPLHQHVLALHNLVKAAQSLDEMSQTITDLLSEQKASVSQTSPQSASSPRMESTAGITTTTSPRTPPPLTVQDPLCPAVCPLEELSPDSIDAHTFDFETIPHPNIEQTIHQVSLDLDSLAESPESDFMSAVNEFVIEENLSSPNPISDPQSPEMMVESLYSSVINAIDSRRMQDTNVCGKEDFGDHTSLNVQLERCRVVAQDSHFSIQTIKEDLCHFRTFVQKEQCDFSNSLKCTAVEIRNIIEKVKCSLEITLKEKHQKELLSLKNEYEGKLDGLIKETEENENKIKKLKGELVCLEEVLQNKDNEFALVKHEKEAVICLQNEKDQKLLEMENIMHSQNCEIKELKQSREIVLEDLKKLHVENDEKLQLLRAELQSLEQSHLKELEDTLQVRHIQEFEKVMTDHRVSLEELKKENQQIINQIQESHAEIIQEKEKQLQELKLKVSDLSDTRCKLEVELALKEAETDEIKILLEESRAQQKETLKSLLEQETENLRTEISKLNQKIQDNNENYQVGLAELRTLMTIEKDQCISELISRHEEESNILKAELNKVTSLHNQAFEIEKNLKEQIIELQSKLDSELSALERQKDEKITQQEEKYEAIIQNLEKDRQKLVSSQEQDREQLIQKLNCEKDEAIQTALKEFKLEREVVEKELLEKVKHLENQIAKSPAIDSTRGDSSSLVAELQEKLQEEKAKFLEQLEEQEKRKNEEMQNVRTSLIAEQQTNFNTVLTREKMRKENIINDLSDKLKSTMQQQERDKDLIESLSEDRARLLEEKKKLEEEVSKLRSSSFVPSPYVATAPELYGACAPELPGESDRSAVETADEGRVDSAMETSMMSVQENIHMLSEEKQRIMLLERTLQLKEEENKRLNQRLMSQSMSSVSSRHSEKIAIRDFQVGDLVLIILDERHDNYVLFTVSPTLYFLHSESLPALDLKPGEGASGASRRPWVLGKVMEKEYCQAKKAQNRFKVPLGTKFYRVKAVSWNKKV
UniProt Q9Y6I9: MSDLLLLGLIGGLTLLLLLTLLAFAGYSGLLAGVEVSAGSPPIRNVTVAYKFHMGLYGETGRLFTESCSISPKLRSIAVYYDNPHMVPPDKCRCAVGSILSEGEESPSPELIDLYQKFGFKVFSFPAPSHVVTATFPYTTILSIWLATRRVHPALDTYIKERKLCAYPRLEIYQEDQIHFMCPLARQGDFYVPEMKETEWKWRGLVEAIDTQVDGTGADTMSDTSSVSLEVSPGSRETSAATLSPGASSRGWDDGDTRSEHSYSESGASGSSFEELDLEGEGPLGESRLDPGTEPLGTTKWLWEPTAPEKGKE

B1: CCPG1 (protein, UniProt Q9ULG6 1-757)
chain: MSENSSDSDSSCGWTVISHEGSDIEMLNSVTPTDSCEPAPECSSLEQEELQALQIEQGESSQNGTVLMEETAYPALEETSSTIEAEEQKIPEDSIYIGTASDDSDIVTLEPPKLEEIGNQEVVIVEEAQSSEDFNMGSSSSSQYTFCQPETVFSSQPSDDESSSDETSNQPSPAFRRRRARKKTVSASESEDRLVAEQETEPSKELSKRQFSSGLNKCVILALVIAISMGFGHFYGTIQIQKRQQLVRKIHEDELNDMKDYLSQCQQEQESFIDYKSLKENLARCWTLTEAEKMSFETQKTNLATENQYLRVSLEKEEKALSSLQEELNKLREQIRILEDKGTSTELVKENQKLKQHLEEEKQKKHSFLSQRETLLTEAKMLKRELERERLVTTALRGELQQLSGSQLHGKSDSPNVYTEKKEIAILRERLTELERKLTFEQQRSDLWERLYVEAKDQNGKQGTDGKKKGGRGSHRAKNKSKETFLGSVKETFDAMKNSTKEFVRHHKEKIKQAKEAVKENLKKFSDSVKSTFRHFKDTTKNIFDEKGNKRFGATKEAAEKPRTVFSDYLHPQYKAPTENHHNRGPTMQNDGRKEKPVHFKEFRKNTNSKKCSPGHDCRENSHSFRKACSGVFDCAQQESMSLFNTVVNPIRMDEFRQIIQRYMLKELDTFCHWNELDQFINKFFLNGVFIHDQKLFTDFVNDVKDYLRNMKEYEVDNDGVFEKLDEYIYRHFFGHTFSPPYGPRSVYIKPCHYSSL

Key:
GST-GABARAP = GST-GABARAP (UniProt O95166); assay: pull-down
FLAG-DNAJB12 (WT) = target: T1, FLAG-DNAJB12 (WT) (UniProt Q9NXW2); assay: co-IP
T1 sequence: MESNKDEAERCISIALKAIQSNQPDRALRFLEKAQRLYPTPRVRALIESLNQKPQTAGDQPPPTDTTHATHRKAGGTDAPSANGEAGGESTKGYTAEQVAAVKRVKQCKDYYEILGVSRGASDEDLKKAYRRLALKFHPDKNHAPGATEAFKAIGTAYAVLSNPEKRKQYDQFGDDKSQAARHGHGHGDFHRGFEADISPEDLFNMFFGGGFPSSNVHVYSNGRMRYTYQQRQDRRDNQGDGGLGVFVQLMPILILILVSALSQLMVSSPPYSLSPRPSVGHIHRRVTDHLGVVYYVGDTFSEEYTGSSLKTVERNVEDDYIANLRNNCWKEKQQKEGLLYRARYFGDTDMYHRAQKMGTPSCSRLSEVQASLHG

3xFLAG-GABARAP = 3xFLAG-GABARAP (UniProt O95166); assay: co-IP

Molecule | binding (GST-GABARAP) | binding (FLAG-DNAJB12 (WT)) | binding (3xFLAG-GABARAP)
FIP200 (focal adhesion kinase family interacting protein of 200 kD) (from UniProt Q8TDY2 1-1594) | binds | binds | binds
TEX264 (from UniProt Q9Y6I9 1-313) | binds | – | –
B1 | binds | – | –
